Results are given in words; binding and its absence hold for the method and conditions named. Binding seen in cells or lysates may run through a third protein. Some results given as binding are weak or reduced against the parent protein; the word gives no strength. Sequences can lack the tags named with a protein.

The assay deals with T1, MLKL fused C-terminally to the double Strep-tag, inducibly expressed in MLKL KO HT-29 cells (human) (UniProt Q8NB16).
T1 sequence: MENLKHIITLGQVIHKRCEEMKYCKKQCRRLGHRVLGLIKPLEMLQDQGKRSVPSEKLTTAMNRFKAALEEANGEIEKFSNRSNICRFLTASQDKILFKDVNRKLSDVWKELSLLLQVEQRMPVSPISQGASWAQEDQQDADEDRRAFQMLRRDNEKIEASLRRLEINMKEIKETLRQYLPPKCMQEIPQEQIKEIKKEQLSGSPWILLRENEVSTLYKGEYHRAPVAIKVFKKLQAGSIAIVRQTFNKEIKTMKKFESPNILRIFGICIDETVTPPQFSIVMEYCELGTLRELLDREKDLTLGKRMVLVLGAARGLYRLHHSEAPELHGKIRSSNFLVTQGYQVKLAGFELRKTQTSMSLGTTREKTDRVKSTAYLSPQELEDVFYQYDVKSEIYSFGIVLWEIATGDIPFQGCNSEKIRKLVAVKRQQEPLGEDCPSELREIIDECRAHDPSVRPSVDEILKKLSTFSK
Put plainly: pull-down; MLKL KO HT-29 cells inducibly expressing MLKL with C-terminal double Strep-tag, TBZ treatment, with or without expression of ITCH; extraction in a buffer containing 1% Brij; western blot.

B1: MVB12B, in HT-29 cells (protein, UniProt Q9H7P6 1-319)
chain: MRSCFCVRRSRDPPPPQPPPPPPQRGTDQSTMPEVKDLSEALPETSMDPITGVGVVASRNRAPTGYDVVAQTADGVDADLWKDGLFKSKVTRYLCFTRSFSKENSHLGNVLVDMKLIDIKDTLPVGFIPIQETVDTQEVAFRKKRLCIKFIPRDSTEAAICDIRIMGRTKQAPPQYTFIGELNSMGIWYRMGRVPRNHDSSQPTTPSQSSAASTPAPNLPRHISLTLPATFRGRNSTRTDYEYQHSNLYAISAMDGVPFMISEKFSCVPESMQPFDLLGITIKSLAEIEKEYEYSFRTEQSAAARLPPSPTRCQQIPQS
On to B1, for which the binding entry is “binds”.

The values above are taken from PMC8816944.
